Data: US4935579A, “Separation of m-diisopropylbenzene from p-diisopropylbenzene by azeotropic distillation with alcohols” (priority 1988, dated 1990)
At least one structure is not confirmed: it was looked up by name or label, or the drawing left a doubt.

Assay: Vapor-liquid equilibrium still: relative volatility of m-DIPB to p-DIPB with alcohol agent and azeotrope boiling point
Format: physicochemical
Conditions: starting mixture 50 % alcohol, 25 % m-DIPB, 25 % p-DIPB
Source text: The data in Tables 2 and 3 were obtained in a vapor-liquid equilibrium still. In each case, the starting material was a mixture containing 50 % alcohol, 25 % m-DIPB and 25 % p-DIPB. The boiling points of the azeotropes at 640 mm. Hg are shown. The relative volatilities are listed for each of the alcohols investigated.
Forty grams of m-DIPB - p-DIPB mixture and 40 grams of diethylene glycol butyl ether were charged to an Othmer type vapor-liquid equilibrium still and refluxed for thirteen hours. Analysis by gas chromatography gave a vapor composition of 68.9% m-DIPB, 31.1% p-DIPB; a liquid decomposition of […], 36.8% p-DIPB. This indicates a relative volatility of m-DIPB to p-DIPB of 1.29.
Forty grams of m-DIPB - p-DIPB mixture and 40 grams of diethylene gylcol methyl ether were charged to the vapor-liquid equilibrium still and refluxed for eleven hours. Analysis indicated a vapor composition of 66.7% m-DIPB, 33.3% p-DIPB; a liquid composition of […] which is a relative volatility of 1.28.

SMILES: CCCCOCCOCC(C)O (centres unmarked) [1-Butoxy ethoxy-2-propanol]
- Azeotrope B.P. (640 mm. Hg): 200 °C
- Relative Volatility (m-DIPB to p-DIPB) (vapor-liquid equilibrium still): 1.25
